According to patent US5112845A, “Alpha-heterocycle substituted tolunitriles” (Ciba-Geigy Corporation, priority 1990, dated 1992):
Where a name gives a salt, the structure may show the parent alone.

Target: T1, aromatase (Homo sapiens, UniProt P11511)
T1 construct: A microsomal fraction is prepared from human placenta by the method essentially as described by Thompson and Siiteri; from tissue; host or cells: human placenta, microsomal fraction (lyophilized)
T1 sequence (P11511 1-503): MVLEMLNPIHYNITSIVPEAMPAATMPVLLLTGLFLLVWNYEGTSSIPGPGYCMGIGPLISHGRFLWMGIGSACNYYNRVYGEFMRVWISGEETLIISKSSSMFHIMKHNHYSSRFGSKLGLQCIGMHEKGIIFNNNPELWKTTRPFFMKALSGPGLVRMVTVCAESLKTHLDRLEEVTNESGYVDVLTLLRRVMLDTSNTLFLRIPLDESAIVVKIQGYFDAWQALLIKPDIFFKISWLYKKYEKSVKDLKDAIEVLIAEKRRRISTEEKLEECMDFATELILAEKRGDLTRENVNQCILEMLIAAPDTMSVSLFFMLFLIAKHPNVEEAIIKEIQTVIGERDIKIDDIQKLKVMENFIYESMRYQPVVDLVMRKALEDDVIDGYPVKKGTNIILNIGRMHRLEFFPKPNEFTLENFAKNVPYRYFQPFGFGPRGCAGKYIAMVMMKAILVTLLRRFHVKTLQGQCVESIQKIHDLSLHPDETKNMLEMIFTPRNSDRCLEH
Experiment: in vitro inhibition of aromatase activity (human placental microsomes, aromatization of [1,2-^3 H]-androstenedione)
Assay type: biochemical
Conditions: 20 minutes at 37° C
Procedure: The microsomal preparation so obtained is lyophilized and stored at -40° C.
The assay is conducted substantially as described by Thompson and Siiteri. The human placental microsomes are added to [1,2-^3 H]-androstenedioneand incubated for 20 minutes at 37° C. The amount of aromatization of the labelled substrate is detected by the […] of ^3 H2 O into the incubation medium. The substrate is removed by chloroform extraction, followed by adsorption to charcoal in suspension. The charcoal is removed by centrifugation and the steroid-free medium is counted in a liquid scintillation counter. Compounds are tested for aromatase inhibitory activity by adding them to the incubation medium prior to the addition of the microsomes. The relative cpm obtained with and without the inhibitor is used to calculate the percent inhibition of the aromatization of androstenedione to estrone.

Structure (SMILES)	IC50 [nM]
N#Cc1ccc(Cn2ccnc2)c2ccccc12 [Example 1c, 4-(1-imidazolylmethyl)-1-naphthonitrile hydrochloride]	~1.5
N#Cc1ccc(Cn2ccnc2)cc1 [Example 1a, 4-(1-imidazolylmethyl)-benzonitrile]	~10
